According to PubChem BioAssay AID192 (DTP/NCI, 2004):
The list does not hold the whole screen: it is rich in T/C values a quarter to a half above the control, in often repeated tests (any T/C) and in doses without a T/C. Further doses and runs are listed elsewhere. T/C gives the treated animals as a percentage of the vehicle group. Some entries give survivors of the animals treated and no T/C: the source files T/C as zero there, which appears to mark a toxic dose or a test without result, not a measured value. Some survivor counts are full or nearly so, which does not show that the dose was tolerated: survival well below the control is almost never listed, so the zero probably covers shortened survival too. Survivors were counted at the toxicity check, usually on the fifth day, unless a day is given; later deaths do not show. Schedules are NCI's codes, taken here to give the interval after Q, in days (D) or hours (H), and the number of doses after X. Some doses were run more than once; the values are given in rising order. Where survival is the endpoint, this PubChem deposit counts one and a half times the control or more as active, and values a quarter to a half above the control carry no call in these data; other NCI protocols may use other cut-offs. Marks such as (2×) give the number of equal values in this list. Some T/C values carry the count of animals alive at the toxicity check (mostly the fifth day); where none is given, no animal had died by that day.

Tested on: BDF1 mice, B16 melanoma ip, median survival T/C
Assay: NCI In Vivo Anticancer Drug Screen. Data for tumor model B16 Melanoma (intraperitoneal) in B6D2F1 (BDF1) mice
Conditions: T/C endpoint: median survival time, higher T/C = longer survival
Procedure, shortened: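 Survival or tumor size is measured after treatment of tumor-bearing mice and normalised to the vehicle-treated control group.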

[1] = dose: 25.0 mg/kg/injection, schedule: Q01DX009 (ip), vehicle: saline with Tween-80
[2] = dose: 25.0 mg/kg/injection, schedule: Q01DX009 (ip), vehicle: saline
[3] = dose: 50.0 mg/kg/injection, schedule: Q01DX009 (ip), vehicle: saline
[4] = dose: 100.0 mg/kg/injection, schedule: Q01DX009 (ip), vehicle: saline
[5] = dose: 300.0 mg/kg/injection, schedule: Q01DX001 (ip), vehicle: saline

With `O=P1(N(CCCl)CCCl)NCCCO1` (stereo not given) the T/C (dose: 6.25 mg/kg/injection, schedule: Q01DX009 (ip), vehicle: saline) was 94, 98, 98 [9 of 10 alive], 109 % of control [9 of 10 alive], the T/C (dose: 12.5 mg/kg/injection, schedule: Q01DX009 (ip), vehicle: saline) was 105, 106, 107, 110, 118 [9 of 10 alive], 121, 128 % of control and the T/C (dose: 12.5 mg/kg/injection, schedule: Q01DX017 (ip), vehicle: saline) was 125 % of control. For the same compound, the T/C (dose: 20.0 mg/kg/injection, schedule: Q01DX009 (ip), vehicle: water) was 127 % of control, the survivor count (dose: 25.0 mg/kg/injection, schedule: Q01DX001 (ip), vehicle: saline) was 6 of 6 and the T/C (dose: 25.0 mg/kg/injection, schedule: Q01DX009 (ip), vehicle: Klucel (hydroxypropylcellulose) (HPC)) was 137 % of control. The T/C [1] was 127 % of control, the survivor count [1] was 6 of 6 and the T/C [2] was 94, 97, 102, 105 [5 of 6 alive], 108, 109, 110, 112, 117 (3×), 118, 119, 120, 121 (2×), 124, 125 (3×), 126, 128 (2×), 129, 130, 135 (2×), 136, 137 (2×), 138, 141, 147, 150 % of control. For the same compound, the survivor count [2] was 10 of 10 and 6 of 6, the T/C (dose: 25.0 mg/kg/injection, schedule: Q01DX009 (ip), vehicle: water) was 140 % of control and the T/C (dose: 25.0 mg/kg/injection, schedule: Q04DX005 (ip), vehicle: saline) was 127 % of control. For the same compound, the T/C (dose: 50.0 mg/kg/injection, schedule: Q01DX001 (ip), vehicle: saline, evaluated on day 5) was 110 % of control, the T/C (dose: 50.0 mg/kg/injection, schedule: Q01DX001 (ip), vehicle: saline, evaluated on day 60) was 107 (2×) and 118 % of control and the survivor count (dose: 50.0 mg/kg/injection, schedule: Q01DX001 (ip), vehicle: saline) was 6 of 6. The T/C (dose: 50.0 mg/kg/injection, schedule: Q01DX001 (ip), vehicle: water) was 127 % of control, the T/C (dose: 50.0 mg/kg/injection, schedule: Q01DX009 (ip), vehicle: Klucel (hydroxypropylcellulose) (HPC)) was 128 and 143 % of control and the survivor count (dose: 50.0 mg/kg/injection, schedule: Q01DX009 (ip), vehicle: saline with Tween-80) was 6 of 6. For the same compound, the T/C [3] was 95, 100, 105, 107, 112, 119, 123 [5 of 6 alive], 125, 126, 129, 130, 131, 139, 145, 146, 147, 152, 154, 161, 162, 165 (2×), 167, 175, 202 % of control, the survivor count [3] was 6 of 10 and 6 of 6 and the T/C (dose: 50.0 mg/kg/injection, schedule: Q02DX009 (ip), vehicle: saline) was 134, 147, 149 % of control. The T/C (dose: 50.0 mg/kg/injection, schedule: Q04DX003 (ip), vehicle: saline) was 128 % of control, the T/C (dose: 50.0 mg/kg/injection, schedule: Q08DX002 (ip), vehicle: saline) was 127 and 128 % of control and the T/C (dose: 50.0 mg/kg/injection, schedule: Q08DX003 (ip), vehicle: saline) was 133 % of control. The T/C (dose: 60.0 mg/kg/injection, schedule: Q04DX003 (ip), vehicle: saline) was 133 % of control, the T/C (dose: 62.22 mg/kg/injection, schedule: Q04DX003 (ip), vehicle: saline) was 139 % of control and the T/C (dose: 64.8 mg/kg/injection, schedule: Q08DX002 (ip), vehicle: saline) was 137 % of control. For the same compound, the T/C (dose: 75.0 mg/kg/injection, schedule: Q01DX001 (ip), vehicle: Klucel (hydroxypropylcellulose) (HPC)) was 128 % of control, the T/C (dose: 75.0 mg/kg/injection, schedule: Q01DX001 (ip), vehicle: saline with Tween-80, evaluated on day 45) was 105, 109, 110, 115 % of control and the T/C (dose: 75.0 mg/kg/injection, schedule: Q01DX001 (ip), vehicle: saline with Tween-80, evaluated on day 60) was 105 and 109 % of control. For the same compound, the T/C (dose: 75.0 mg/kg/injection, schedule: Q01DX001 (ip), vehicle: saline) was 100, 102, 105, 106, 109, 109 [5 of 6 alive], 110, 110 [5 of 6 alive], 111 (3×), 113, 116, 117, 119, 120, 121 (4×), 122, 128, 131, 137, 140 % of control, the survivor count (dose: 75.0 mg/kg/injection, schedule: Q01DX009 (ip), vehicle: saline) was 6 of 6 and the T/C (dose: 100.0 mg/kg/injection, schedule: Q01DX001 (ip), vehicle: saline, evaluated on day 5) was 127 % of control. The T/C (dose: 100.0 mg/kg/injection, schedule: Q01DX001 (ip), vehicle: saline, evaluated on day 60) was 126 and 134 % of control (2×), the survivor count (dose: 100.0 mg/kg/injection, schedule: Q01DX001 (ip), vehicle: saline) was 6 of 6 and the T/C (dose: 100.0 mg/kg/injection, schedule: Q01DX001 (ip), vehicle: water) was 145 % of control. The T/C (dose: 100.0 mg/kg/injection, schedule: Q01DX009 (ip), vehicle: Klucel (hydroxypropylcellulose) (HPC)) was 143 % of control, the survivor count (dose: 100.0 mg/kg/injection, schedule: Q01DX009 (ip), vehicle: saline with Tween-80) was 6 of 6 and the T/C [4] was 87, 92, 95, 97, 100, 104, 105, 107 [5 of 6 alive], 117 (2×), 122, 129, 130, 157, 158, 167 % of control. The survivor count [4] was 6 of 10, 7 of 10, 5 of 6, 9 of 10, 10 of 10, 6 of 6, 7 of 7, the survivor count (dose: 100.0 mg/kg/injection, schedule: Q01DX009 (ip), vehicle: water) was 5 of 5 and the T/C (dose: 100.0 mg/kg/injection, schedule: Q02DX009 (ip), vehicle: saline) was 133 % of control. For the same compound, the T/C (dose: 100.0 mg/kg/injection, schedule: Q08DX002 (ip), vehicle: saline, evaluated on day 5) was 132 and 143 % of control, the T/C (dose: 100.0 mg/kg/injection, schedule: Q08DX002 (ip), vehicle: saline, evaluated on day 60) was 156 and 159 % of control and the T/C (dose: 150.0 mg/kg/injection, schedule: Q01DX001 (ip), vehicle: Klucel (hydroxypropylcellulose) (HPC)) was 125 and 146 % of control. For the same compound, the T/C (dose: 150.0 mg/kg/injection, schedule: Q01DX001 (ip), vehicle: saline with Tween-80, evaluated on day 45) was 115, 128, 130, 135 % of control, the T/C (dose: 150.0 mg/kg/injection, schedule: Q01DX001 (ip), vehicle: saline with Tween-80, evaluated on day 60) was 105 and 111 % of control and the T/C (dose: 150.0 mg/kg/injection, schedule: Q01DX001 (ip), vehicle: saline) was 107, 111, 113, 115, 116, 118, 126, 127, 127 [5 of 6 alive], 131, 132, 133, 135, 138, 140, 141, 141 [5 of 6 alive], 142, 144, 145, 150, 152, 156, 167, 177 % of control. The survivor count (dose: 150.0 mg/kg/injection, schedule: Q01DX009 (ip), vehicle: saline) was 6 of 6, the T/C (dose: 200.0 mg/kg/injection, schedule: Q01DX001 (ip), vehicle: saline, evaluated on day 5) was 156 % of control and the T/C (dose: 200.0 mg/kg/injection, schedule: Q01DX001 (ip), vehicle: saline, evaluated on day 10) was 139 % of control. For the same compound, the T/C (dose: 200.0 mg/kg/injection, schedule: Q01DX001 (ip), vehicle: saline, evaluated on day 60) was 153 [9 of 10 alive], 156, 163 % of control, the survivor count (dose: 200.0 mg/kg/injection, schedule: Q01DX009 (ip), vehicle: saline) was 5 of 6, 10 of 10, 6 of 6, 7 of 7 and the survivor count (dose: 200.0 mg/kg/injection, schedule: Q02DX009 (ip), vehicle: saline) was 10 of 10. The survivor count (dose: 200.0 mg/kg/injection, schedule: Q04DX003 (ip), vehicle: saline) was 10 of 10, the survivor count (dose: 200.0 mg/kg/injection, schedule: Q04DX005 (ip), vehicle: saline) was 10 of 10 and the T/C (dose: 200.0 mg/kg/injection, schedule: Q08DX002 (ip), vehicle: saline, evaluated on day 5) was 183 % of control (2×). For the same compound, the T/C (dose: 200.0 mg/kg/injection, schedule: Q08DX002 (ip), vehicle: saline, evaluated on day 60) was 91 and 210 % of control, the T/C (dose: 200.0 mg/kg/injection, schedule: Q08DX003 (ip), vehicle: saline) was 128 % of control and the survivor count (dose: 240.0 mg/kg/injection, schedule: Q04DX003 (ip), vehicle: saline) was 10 of 10. The survivor count (dose: 300.0 mg/kg/injection, schedule: Q01DX001 (ip), vehicle: Klucel (hydroxypropylcellulose) (HPC)) was 5 of 6, the T/C (dose: 300.0 mg/kg/injection, schedule: Q01DX001 (ip), vehicle: saline with Tween-80, evaluated on day 45) was 140, 160 [5 of 6 alive], 161 % of control and the T/C (dose: 300.0 mg/kg/injection, schedule: Q01DX001 (ip), vehicle: saline with Tween-80, evaluated on day 60) was 107 and 144 % of control. The survivor count (dose: 300.0 mg/kg/injection, schedule: Q01DX001 (ip), vehicle: saline with Tween-80) was 5 of 6, the T/C [5] was 97 [4 of 6 alive], 105, 119 [4 of 6 alive], 125, 128 (2×), 133 [5 of 6 alive], 145, 147 [4 of 6 alive], 159 (2×), 160, 164 (2×), 165, 167, 178, 211 % of control and the survivor count [5] was 2 of 6, 3 of 6, 5 of 6, 6 of 6. For the same compound, the survivor count (dose: 300.0 mg/kg/injection, schedule: Q01DX001 (ip), vehicle: water) was 9 of 10, the survivor count (dose: 300.0 mg/kg/injection, schedule: Q01DX009 (ip), vehicle: saline) was 5 of 6 and the T/C (dose: 400.0 mg/kg/injection, schedule: Q01DX001 (ip), vehicle: saline, evaluated on day 5) was 42 % of control. The T/C (dose: 400.0 mg/kg/injection, schedule: Q01DX001 (ip), vehicle: saline, evaluated on day 60) was 107 % of control [9 of 10 alive], the survivor count (dose: 400.0 mg/kg/injection, schedule: Q01DX001 (ip), vehicle: saline) was 8 of 10 and the survivor count (dose: 400.0 mg/kg/injection, schedule: Q02DX009 (ip), vehicle: saline) was 4 of 10. The survivor count (dose: 400.0 mg/kg/injection, schedule: Q04DX003 (ip), vehicle: saline) was 6 of 10, the survivor count (dose: 400.0 mg/kg/injection, schedule: Q08DX002 (ip), vehicle: saline) was 1 of 10 and 10 of 10 and the survivor count (dose: 400.0 mg/kg/injection, schedule: Q08DX003 (ip), vehicle: saline) was 7 of 10.
